# Data as given in patent publication US11981626B1, “Compound embodiments for hydrogen sulfide production and methods of making and using the same” (University of Oregon, priority 2018, dated 2024).
# At least one compound was matched to its structure with a doubt left.
# Experiment: COS/H2S release monitored by PNA formation (UV-Vis) in PBS containing CA
# Type: physicochemical
# Conditions: PBS pH 7.4, 37° C.
# Procedure: To investigate COS/H2S release from donor compound embodiments, γ-KetoTCM-1 (50 μM) was incubated in PBS (pH 7.4, 10 mM) containing CA (25 μg/mL) and H2S release was detected by monitoring para-nitroaniline (PNA) formation at 37° C. In particular, a γ-KetoTCM-1 stock solution (15.0 μL, 10.0 mM in DMSO) was added to 3.00 mL of PBS (pH 6.00, 7.40 or 8.00, 10.0 mM) containing CA (25.0 μg/mL) in a quartz UV cuvette. The absorbance (250-500 nm) was measured and recorded by using Agilent Cary 100 or Cary 60 UV-Vis spectrometers at 37° C. kobs was then obtained by plotting the absorbance ratio of PNA and γ-KetoTCM-1 versus time and t1/2 was calculated by dividing In(2) by kobs.
# In this example, pH effects on COS/H2S release were investigated by incubating γ-KetoTCM-1 (50 μM) in PBS (pH 6.0-8.0) and monitoring with a UV-Vis spectrometer. […] In particular, a γ-KetoTCM-1 stock solution (15.0 μL, 10.0 mM in DMSO) was added to 3.00 mL of PBS (pH 6.00, 10.0 mM) containing CA (25.0 μg/mL) in a 3-mL UV cuvette. The absorbance (250-500 nm) was measured and recorded at 37° C. kobs was then obtained by plotting the absorbance ratio of PNA and γ-KetoTCM-1 vs time.
structure (smiles),measurement,value
"CCCCOC(=S)Nc1ccc([N+](=O)[O-])cc1 [n-BuTCM-1, n-butylthiocarbamate]",PNA released in PBS buffer (indicating COS/H2S release),negligible
